Test results reported in PubChem BioAssay AID1347076 (National Center for Advancing Translational Sciences (NCATS), 2019).
The campaign covered roughly 400,000 compounds. About 13,000 (3.2%) were called active. Inconclusive results, whose numbers are uncertain, are shown with a selection of clear calls. The call rests on the fitted dose curve; in most records, active means well fitted cell-killing curve with a large enough effect; inconclusive means small, poorly fitted or top-dose-only effect, or effect the other way; inactive means flat fitted curve, though single readings scatter. A potency beside an inconclusive call is a rough fit, not a confirmed value.
On the % scale 0 is the no-effect control and ±100 the full control effect; potency means the concentration at half of the fitted maximal effect.

Assay: qHTS assay for MDR1-selective chemotherapeutics: Primary screen using the drug-selected MDR subline cells KB-V1; further: nearly all actives have a fitted effect of over 60% in size
Conditions: KB-V1 MDR cells viability, CellTiter-Glo, 72 h; activity change, negative = cytotoxicity: at 46.1 µM (top of the series)
Procedure, shortened: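 Potencies derive from concentration-effect curves fitted to normalized luminescence (CellTiter-Glo) of KB-V1 cells treated for 72 h at 37 degrees C in phenol-red-free DMEM containing 10% FBS.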
In the case of `Cc1ccc(NC(=O)C(=O)c2c(-c3ccccc3)cc3ccccn23)cc1S(=O)(=O)N1CCOCC1`, the Potency is reported as inconclusive: 0.112 µM [cytotoxic, full curve, poor fit]. With `CCOC(=O)c1cnc(-n2cc(C)cn2)nc1Nc1ccccc1OCC` the Potency was active: 1.16 µM. For `CN(CCc1ccccn1)c1ncnc2[nH]ncc12`, the Potency was inconclusive: 9.2 µM [cytotoxic, partial curve, poor fit]. For `COc1cc(Cl)c(C)cc1NC(=O)Cn1c(C)c2cnn(-c3ccccc3)c(=O)c2c1C`, the activity change, negative = cytotoxicity was inconclusive: 33.2%. In the case of `CN(C)CCCN(C(=O)c1ccc(S(=O)(=O)N2CCc3ccccc32)cc1)c1nc2ccc(F)cc2s1`, the Potency is reported as “inactive”. In the case of `Cc1oc(-c2ccccc2F)nc1CN1CCC(C(=O)NC2CCCCCCC2)CC1`, the Potency is reported as active: 11.6 µM. For `CCCc1cc(=O)[nH]c(SCC(=O)Nc2sc(C(N)=O)c(C)c2C(=O)OCCOC)n1`, the Potency was inconclusive: 29.1 µM [cytotoxic, single point]. With `CC(=O)OC[C@@H]1CN(Cc2ccccc2)C[C@H](n2cnc3c(Nc4ccccc4)ncnc32)O1` the Potency was “inactive”. For `CC(C)Sc1nnc([C@H](Cc2c[nH]c3ccccc23)NC(=O)OC(C)(C)C)o1`, the Potency was “inactive”. With `CCOc1ccc(N(CC(=O)N2CCC(Cc3ccccc3)CC2)S(C)(=O)=O)cc1` the Potency was inconclusive: 9.2 µM [cytotoxic, partial curve]. For `O=C(c1ccc(-n2cccn2)cc1)N1CCN(c2ncccc2C(F)(F)F)CC1`, the Potency was inconclusive: 23.1 µM [cytotoxic, single point]. In the case of `Cc1ccc(COC(=O)c2cc(S(=O)(=O)N3CCCCC3)ccc2N2CCOCC2)cc1`, the Potency is reported as inconclusive: 20.6 µM [cytotoxic, single point]. With `CN1CCN(C(=S)NC(=O)c2cccc([N+](=O)[O-])c2)CC1` the Potency was inconclusive: 16.4 µM [rising, single point]. In the case of `Cc1cccc(N2CCN(C(=O)c3cc4c(=O)n(C)c5ccccc5c4n3C)CC2)c1C`, the Potency is reported as “inactive”. For `Cc1ccc(S(=O)(=O)Nc2cccc3ncccc23)cc1`, the Potency was inconclusive: 16.4 µM [cytotoxic, single point]. In the case of `S=C1NC[C@H](c2ccccc2)N1CCCCC1CCCCC1`, the Potency is reported as “inactive”. With `CN(C(=O)COC(=O)c1ccc(Cl)cc1N)C1CCCCC1` the Potency was inconclusive: 18.4 µM [cytotoxic, single point]. With `Cc1ccc(C)c(NC(=O)Cc2nc(CNCC(C)C)cs2)c1` the Potency was “inactive”. With `COc1ccccc1/C=N/NC(=O)c1[nH]c(C)c(C(=O)N/N=C/c2ccccc2OC)c1C` the Potency was inconclusive: 29.1 µM [rising, single point]. With `Cc1ccc(C(=O)ONc2ccc(N=NC(=O)c3ccccc3O)cc2)cc1` the Potency was inconclusive: 18.4 µM [cytotoxic, single point]. In the case of `CN(CCc1ccccc1)C(c1ccnc2ccccc12)c1nnnn1-c1ccc2c(c1)OCCO2` (stereo unspecified), the Potency is reported as inconclusive: 9.2 µM [cytotoxic, partial curve]. For `CCn1cc2nc(SCc3cccc(C(F)(F)F)c3)n(Cc3ccc(OC)cc3)c(=O)c2n1`, the Potency was active: 18.4 µM. For `CCCc1cc(=O)[nH]c(SCc2cc(=O)oc3cc(C)c(C(C)C)cc23)n1`, the Potency was active: 20.6 µM. For `CN(C(=O)c1ccc2c(c1)OCO2)C1(C)CCS(=O)(=O)C1` (stereo unspecified), the Potency was “inactive”. For `CCOC(=O)CNC(=S)N(Cc1ccccc1)Cc1ccccc1F`, the Potency was inconclusive: 32.6 µM [cytotoxic, single point]. With `CCn1c(C)c(C(C)=O)c(N2CCN(C(c3ccccc3)c3ccccc3)CC2)nc1=S` the Potency was inconclusive: 8.2 µM [cytotoxic, partial curve]. For `CC(C)(C)c1ccc(C(=O)N2CCC3(CC2)NCCc2[nH]cnc23)cc1`, the Potency was inconclusive: 10.3 µM [rising, partial curve, poor fit]. In the case of `O=C(O)C1OC1(c1ccccc1Cl)c1ccccc1Cl` (stereo unspecified), the Potency is reported as “inactive”. In the case of `Cc1nn(C(C)c2nc(-c3ccccc3)no2)c(C)c1[N+](=O)[O-]` (stereo unspecified), the Potency is reported as inconclusive: 3.66 µM [cytotoxic, full curve]. In the case of `CCN1CCN(C(=O)Cn2nc(C)c3sc4ccccc4c3c2=O)CC1`, the Potency is reported as “inactive”. For `Cc1nn(-c2ccc(F)cc2)c(Cl)c1/C=C1\C(=O)Nc2ccccc21`, the Potency was active: 13 µM. With `COc1cccc2sc(Nc3nc(-c4ccncc4)cs3)nc12` the Potency was active: 8.2 µM. For `COc1nc(-c2ccccc2)nc(-c2ccccc2)c1C`, the Potency was “inactive”. With `CC1CCN(CCCCOc2ccc(F)cc2)CC1` the Potency was inconclusive: 18.4 µM [rising, partial curve, poor fit]. In the case of `CCOC(=O)[C@@H]1[C@H]2COc3cc(OC)ccc3[C@H]2N2C(=O)N(c3ccc(C(F)(F)F)cc3)C(=O)[C@]12C`, the Potency is reported as inconclusive: 20.6 µM [cytotoxic, single point]. For `Cc1cc(/C=N/NC(=O)c2c(Br)cnn2C)c(C)n1-c1cccc(Br)c1`, the Potency was inconclusive: 29.1 µM [cytotoxic, partial curve, poor fit]. With `Cc1ccc2c(N)c(C(=O)c3ccccc3)sc2n1` the Potency was inconclusive: 29.1 µM [cytotoxic, single point]. With `COc1ccccc1N1CCN(C(=O)CCNS(=O)(=O)c2ccc(Br)s2)CC1` the Potency was inconclusive: 14.6 µM [cytotoxic, partial curve]. For `CC(C)(C)c1csc(NC(=O)CSC2=NCCS2)n1`, the activity change, negative = cytotoxicity was inconclusive: 31.7%. With `O=C(NCCN1CCOCC1)c1cc(-c2cccs2)on1` the Potency was active: 16.4 µM. With `COc1ccc(C(=O)NCCSc2ccc(C)cc2)cc1` the Potency was inconclusive: 18.4 µM [cytotoxic, single point]. With `O=C(Nc1cnccn1)c1ccc(F)cc1Cl` the Potency was “inactive”. For `COc1ccc(N2CCN(c3ncnc4c3cnn4-c3ccc(C)cc3C)CC2)cc1`, the Potency was active: 4.61 µM. For `CCCCN1C(=O)C(=Nc2cccc3cnccc23)c2ccccc21`, the Potency was inconclusive: 16.4 µM [cytotoxic, single point]. For `CC(C)n1cnc2c(Nc3cccc(Cl)c3)nc(N(CCO)CCCO)nc21`, the Potency was inconclusive: 23.1 µM [cytotoxic, single point]. In the case of `C/C(CC(=O)Nc1ccc2c(c1)OCO2)=N\NC(=O)C(c1ccccc1)c1ccccc1`, the Potency is reported as “inactive”.
